Assay results as given in the supplement of paper PMC12823440, “Inhibitors supercharge kinase turnover through native proteolytic circuits” (Nature, 2025).
Structures can show the parent of a compound that is named as a salt. This is one part of the list. The calls rarely recur for the same compound in another form.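 In K562 cells expressing nanoluciferase-fused kinases, luminescence was recorded at 4 h intervals between 2 and 18 h, normalized as percent of control with DMSO at 100% and a positive control at 0%. A significant (2 sigma) signal drop marks a time point as decreased. The authors' rule for a hit is not shown and takes in more than the number of time points.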

By UniProt entry, the sequences of proteins in these tests, tags left out. Where a name states a change or a piece, a line headed by the entry shows the natural chain unless it says otherwise.
UniProt Q9UQB9: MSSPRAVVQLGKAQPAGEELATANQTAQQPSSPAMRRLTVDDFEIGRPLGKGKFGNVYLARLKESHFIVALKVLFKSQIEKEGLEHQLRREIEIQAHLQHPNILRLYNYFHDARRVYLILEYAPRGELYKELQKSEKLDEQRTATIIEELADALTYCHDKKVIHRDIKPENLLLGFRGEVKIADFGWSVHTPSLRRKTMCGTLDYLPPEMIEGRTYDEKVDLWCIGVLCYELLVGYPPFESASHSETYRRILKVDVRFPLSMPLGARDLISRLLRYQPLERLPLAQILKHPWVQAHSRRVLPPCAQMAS

Molecular target: AURKC (UniProt Q9UQB9)
Experiment: kinase-Nluc reporter destabilization hit call (1 = scored as downregulated) (binary); higher = compound decreases kinase abundance
Conditions: K562; 2-18 h

Row | SMILES | kinase-Nluc reporter destabilization hit call
1 | CCCCNc1nc(N)c2[nH]c(=O)n(Cc3ccc(C)nc3)c2n1 (10 µM) | inactive: 0
2 | N#CC(C#N)=Cc1ccc([N+](=O)[O-])c(O)c1 (10 µM) | inactive: 0
3 | O=c1[nH]c2ccccc2n1C1CCN(Cc2ccc(-c3[nH]c4cc5ncnc5cc4nc3-c3ccccc3)cc2)CC1 [AKT inhibitor VIII] (2.5 µM) | inactive: 0
4 | CC(=O)Oc1ccc(/C=C/c2cc(OC(C)=O)cc(OC(C)=O)c2)cc1 [Triacetylresveratrol] (10 µM) | inactive: 0
5 | O=C1c2ccccc2C(=O)c2c1cccc2-c1cnn(C2CCNCC2)c1 [PDK4-IN-1 (hydrochloride)] (10 µM) | inactive: 0
6 | CC1C(=O)OC2C(O)C34C5OC(=O)C3(OC3OC(=O)C(O)C34C(C(C)(C)C)C5O)C12O (stereo unspecified) [Ginkgolide C] (10 µM) | inactive: 0
7 | O=Cc1cn(Cc2ccc(Cl)cc2)c2ccccc12 [Oncrasin-1] (10 µM) | inactive: 0
8 | N#CC(C#N)=NNc1cccc(Cl)c1 (2.5 µM) | inactive: 0
9 | CC(C)=CC[C@@H](OC(=O)CC(C)(C)O)C1=CC(=O)c2c(O)ccc(O)c2C1=O [β-Hydroxyisovalerylshikonin] (2.5 µM) | inactive: 0
10 | O=c1ccc2cc(O[C@@H]3O[C@H](CO)[C@@H](O)[C@H](O)[C@H]3O)c(O)cc2o1 [Esculin] (10 µM) | inactive: 0
11 | C[C@H]1CC[C@]2(NC1)O[C@H]1C[C@H]3[C@@H]4CC[C@H]5C[C@@H](O)CC[C@]5(C)[C@H]4CC[C@]3(C)[C@H]1[C@@H]2C [Tomatidine] (2 µM) | inactive: 0
